Test results published in US8916592B2, “Malononitrile compounds” (Merial Limited, priority 2005, dated 2014).
Some of these results come from one statement about several compounds together.

How the values were obtained:
Assay type in all cases: in vivo
[1] = test system: Boll Weevil (Anthonomus grandis); experiment: Activity against Boll Weevil (eggs sprayed in microtiterplates); conditions: 2500 ppm, 3 to 5 days, untreated controls 0% mortality
Protocol: The active compounds were formulated in 1:3 DMSO:water. 10 to 15 eggs were placed into microtiterplates filled with 2% agar-agar in water and 300 ppm formaline. The eggs were sprayed with 20 μl of the test solution, the plates were sealed with pierced foils and kept at 24-26° C. and 75-85% humidity with a day/night cycle for 3 to 5 days. Mortality was assessed on the basis of the remaining unhatched eggs or larvae on the agar surface and/or quantity and depth of the digging channels caused by the hatched larvae. Tests were replicated 2 times.

[2] = test system: Mediterranean Fruitfly (Ceratitis capitata); experiment: Activity against Mediterranean Fruitfly (eggs sprayed in microtiterplates); conditions: 2500 ppm, 6 days, untreated controls 0% mortality
Protocol: The active compounds were formulated in 1:3 DMSO:water. 50 to 80 eggs were placed into microtiterplates filled with 0.5% agar-agar and 14% diet in water. The eggs were sprayed with 5 μl of the test solution, the plates were sealed with pierced foils and kept at 27-29° C. and 75-85% humidity under fluorescent light for 6 days. Mortality was assessed on the baswas of the agility of the hatched larvae. Tests were replicated 2 times.

[3] = test system: Vetch Aphid (Megoura viciae); experiment: Activity against Vetch Aphid (sprayed bean leaf disks); conditions: 2500 ppm, adult aphids, 6 days, untreated controls 0% mortality
Protocol: The active compounds were formulated in 1:3 DMSO:water. Bean leaf disks were placed into microtiterplates filled with 0.8% agar-agar and 2.5 ppm OPUS™. The leaf disks were sprayed with 2.5 μl of the test solution and 5 to 8 adult aphids were placed into the microtiterplates which were then closed and kept at 22-24° C. and 35-45% under fluorescent light for 6 days. Mortality was assessed on the basis of vital, reproduced aphids. Tests were replicated 2 times.

| SMILES | mortality [1] | mortality [2] | mortality [3] |
| --- | --- | --- | --- |
| N#CC(C#N)(CCOCC(F)(F)F)Cc1ccc(Cl)c(Cl)c1 [Compound I-43] | over 75% |  |  |
| N#CC(C#N)(CCSC(F)(F)F)Cc1nnc(-c2ccccc2)o1 [Compound I-32] | over 75% |  |  |
| N#CC(C#N)(CC[S+]([O-])C(F)(F)F)Cc1ccc(OC(F)(F)F)cc1 (stereo not shown) [Compound I-18] | over 75% | over 75% |  |
| N#CC(C#N)(CCSC(F)(F)F)Cc1ccc(Cl)s1 [Compound I-33] | over 75% | over 75% |  |
| N#CC(C#N)(CC[S+]([O-])C(F)(F)F)Cc1ccc(C(F)(F)F)cc1 (stereo not shown) [Compound I-14] | over 75% | over 75% |  |
| N#CC(C#N)(CC[S+]([O-])C(F)(F)F)Cc1ccc(I)cc1 (stereo not shown) [Compound I-23] | over 75% | over 75% |  |
| N#CC(C#N)(CSC(F)(F)F)Cc1ccc(I)cc1 [Compound I-5] | over 75% | over 75% |  |
| N#CC(C#N)(CCOCC(F)(F)F)Cc1ccc(Cl)cc1 [Compound I-42] |  |  | over 75% |
| CC(C)c1nc(CC(C#N)(C#N)CCSC(F)(F)F)no1 [Compound I-30] |  | over 75% |  |
| N#CC(C#N)(CSC(F)(F)F)Cc1ccc(C(F)(F)F)cc1 [Compound I-2] | over 75% | over 75% |  |
| N#CC(C#N)(CSC(F)(F)F)Cc1ccc(Cl)cc1 [Compound I-4] | over 75% | over 75% |  |
| N#CC(C#N)(CSC(F)(F)F)Cc1ccc(OC(F)(F)F)cc1 [Compound I-3] | over 75% | over 75% |  |
| N#CC(C#N)(CCS(=O)(=O)C(F)(F)F)Cc1ccc(OC(F)(F)F)cc1 [Compound I-20] | over 75% | over 75% |  |
| N#CC(C#N)(CCSC(F)(F)F)Cc1c(F)cc(F)cc1F [Compound I-13] | over 75% | over 75% |  |
| COCCC(C#N)(C#N)Cc1ccc(OC(F)(F)F)cc1 [Compound I-37] |  |  | over 75% |
| N#CC(C#N)(CCSC(F)(F)F)Cc1ccc(C(F)(C(F)(F)F)C(F)(F)F)cc1 [Compound I-26] | over 75% | over 75% |  |
| N#CC(C#N)(CCS(=O)(=O)C(F)(F)F)Cc1ccc(Cl)cc1 [Compound I-17] | over 75% | over 75% |  |
| N#CC(C#N)(CCSC(F)(F)F)Cc1cnc(Cl)s1 [Compound I-34] | over 75% | over 75% |  |
